# In PubChem BioAssay AID504467 (National Center for Advancing Translational Sciences (NCATS), 2011):
# Screen size: about 330,000 compounds; about 7,700 (2.3%) were called active. This list was built around the results that the source calls inconclusive (neither active nor inactive); the mix of calls is not that of the screen. Calls follow the shape of the dose curve; as a rule, active = well fitted inhibition curve with a large enough effect; inconclusive = small, poorly fitted or top-dose-only effect, or effect the other way; inactive = flat fitted curve, though single readings scatter. Potencies beside an inconclusive call are fits to weak or partial responses and may not hold up.
# Assay: qHTS screen for small molecules that inhibit ELG1-dependent DNA repair in human embryonic kidney (HEK293T) cells expressing luciferase-tagged ELG1; also: nearly all actives have a fitted effect of over 55% in size
# Conditions: HEK293T ELG1-luciferase reporter, luminescence, 16 h, DNA damage induced by 5-fluorouridine; series mostly up to 46.1 µM
# Summary of the method: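 Overnight (16 hr) co-exposure of 2,000 cells/well to 5-fluorouridine and compound at 37 °C preceded detection. Luciferase was quantified via ONE-Glo luminescence; loss of signal denotes inhibition.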
# Potency is read from the fitted curve at half-maximal effect.
row,Structure (SMILES),Potency
1,c1csc(-c2noc(CN3CCc4sccc4C3)n2)c1,"inconclusive: 32.6 µM [activator, single point]"
2,COC(=O)c1ccc(C#Cc2ccccc2)o1,"inconclusive: 14.6 µM [activator, partial curve]"
3,O=C(c1ccccc1)c1ccc2nc(N3CCN(C(=O)c4ccco4)CC3)c3nncn3c2c1,active: 20.6 µM
4,Cc1csc(=Nc2cccnc2)n1CC1CCCCC1,"inconclusive: 3.26 µM [inhibitor, partial curve, poor fit]"
5,CCOc1cc(N2CCOCC2)c(OCC)cc1NC(=O)Cn1[nH]c(=O)c2ccccc2c1=O,"inconclusive: 3.66 µM [inhibitor, single point]"
6,CCOc1cc(CN2CCN(CCc3ccccc3)C(CCO)C2)ccc1OC (configuration not stated),inactive
7,Cc1ccc(C2/C(=C(\O)c3ccc4c(c3)OCCO4)C(=O)C(=O)N2CCCN(C)C)o1 (configuration not stated),"inconclusive: 20.6 µM [activator, single point]"
8,Cc1cc(C(=O)Nc2c(F)cc(F)cc2Br)cs1,"inconclusive: 29.1 µM [activator, single point]"
9,COC(=O)c1cc(=O)n(-c2ccc(F)cc2)c(=Nc2ccc(F)cc2)s1,"inconclusive: 29.1 µM [inhibitor, single point]"
10,Cc1ccc(S(=O)(=O)N2c3ccccc3-c3c(ssc3=S)C2(C)C)cc1,inactive
11,Cc1cc(Cl)c(S(=O)(=O)N/N=C/c2ccc3c(c2)OCO3)c(Cl)c1,"inconclusive: 20.6 µM [activator, single point]"
12,CCc1cn(C2CC(O)C(CO)O2)c(=O)[nH]c1=O (configuration not stated),"inconclusive: 0.891 µM [inhibitor, partial curve, poor fit]"
13,CCn1c(SCc2cccnc2)nc2c1c(=O)n(C)c(=O)n2C,inactive
14,Cc1ccc(-c2n[nH]c(=O)c3ccccc23)cc1N,inactive
15,Cc1ccc(OCC(=O)NC(=S)Nc2ccc(Br)cn2)cc1,inactive
16,O=C(N/N=C/c1ccco1)c1cc(C2CC2)[nH]n1,"inconclusive: 20.6 µM [activator, partial curve]"
17,COc1cccc(-c2cc(C(=O)Nc3ccc4c(c3)OCCO4)c3ccccc3n2)c1,"inconclusive: 20.6 µM [inhibitor, single point]"
18,CC1=Nc2cc(C(=O)NCCCOC(C)C)ccc2Sc2ccc(C)cc21,"inconclusive: 5.17 µM [inhibitor, single point]"
19,S=C(Nc1ccc(Cl)cc1)Nc1cccc2cnccc12,"inconclusive: 23.1 µM [inhibitor, single point]"
20,O=C(c1ccco1)N1c2ccccc2Sc2ccccc21,inactive
21,CCc1ccc(CNC(=O)CCS(=O)(=O)Cc2ccccc2F)cc1,inactive
22,Cc1ccc(OCC(=O)Nc2ccc(S(=O)(=O)N3CCOCC3)cc2)c(Br)c1,"inconclusive: 6.51 µM [inhibitor, single point]"
23,CC(Oc1cccc(F)c1)C(=O)Nc1ccc(N2CCOCC2)cc1 (configuration not stated),"inconclusive: 1.16 µM [inhibitor, single point]"
24,Cc1ccnc(NC(=O)CCCNC(=O)c2ccc(Cl)cc2)c1,"inconclusive: 20.6 µM [activator, single point]"

# Looked up by structure from above (2):
row,Structure (SMILES),Potency
18,CC1=Nc2cc(C(=O)NCCCOC(C)C)ccc2Sc2ccc(C)cc21,"inconclusive: 5.17 µM [inhibitor, single point]"
16,O=C(N/N=C/c1ccco1)c1cc(C2CC2)[nH]n1,"inconclusive: 20.6 µM [activator, partial curve]"

# (listing goes on)

row,Structure (SMILES),Potency
1,CCC(=O)N1CCN(c2nc3ccc(Br)cc3s2)CC1,"inconclusive: 10.3 µM [activator, partial curve]"
2,COc1ccc(S(=O)(=O)N(C)C[C@H]2Oc3c(NC(=O)Nc4ccc5c(c4)OCO5)cccc3C(=O)N([C@H](C)CO)C[C@@H]2C)cc1,active: 11.6 µM
3,CC1CCc2nn(CC(=O)NC3CCCC3)cc2C1 (configuration not stated),"inconclusive: 18.4 µM [activator, partial curve]"
4,Cc1ccc(F)cc1NC(=O)/C=C/c1ccc(S(=O)(=O)N2CCOCC2)cc1,active: 23.1 µM
5,CCCSc1nc(=S)n(Cc2ccccc2)c(C)c1C(C)=O,"inconclusive: 29.1 µM [inhibitor, single point]"
6,CCONC(=O)Nc1ccccc1,inactive
7,CCN(CC(=O)Nc1cc(Cl)ccc1C)C(=O)Cn1c(=O)cnc2ccccc21,inactive
8,COc1cc(/C=C/C(=O)O)cc(S(=O)(=O)Nc2ccccc2Oc2ccccc2)c1OC,inactive
9,O=Cc1[nH]c2ccccc2c1N(C(=O)CCl)c1ccccc1,"inconclusive: 18.3 µM [inhibitor, single point]"
10,CCC1=NN(C(=O)c2cccnc2)C(O)(C(F)(F)F)C1 (configuration not stated),inactive
11,O=C(CSCc1ccccc1)Nc1ccc(Cl)cn1,"inconclusive: 18.4 µM [activator, partial curve]"
12,Cc1ccccc1CSc1nnc(-c2ccccn2)n1N,"inconclusive: 18.4 µM [activator, partial curve]"
13,CCCCN1C(=O)C(=O)N(CC(=O)c2ccc3c(c2)OCO3)C1=O,inactive
14,Cc1cc(=O)[nH]c2nnc(-c3ccc(Cl)cc3)n12,"inconclusive: 9.2 µM [activator, partial curve]"
15,COc1ccc(NC(=O)Nc2ccc(OCC(=O)N3CCOCC3)cc2)cc1OC,inactive
16,COc1ccc2cc(C#N)c(SCC(=O)Nc3nonc3C)nc2c1,inactive
17,Cc1c(Cl)cccc1NC(=O)CSc1nccn1C,inactive
18,Cc1cc(C)cc(NC(=O)N2CCc3ccccc3C2)c1,"inconclusive: 5.8 µM [activator, full curve]"
19,COc1ccc(N2C(=O)CC(NNC(=O)c3ccc(Br)s3)C2=O)cc1 (configuration not stated),inactive
20,Fc1ccc(-c2cc(C(F)(F)F)nc(N3CCCCC3)n2)cc1,inactive
21,OCCN1CCN(c2ncnc3c2c(-c2ccccc2)cn3-c2ccc(F)cc2)CC1,"inconclusive: 29.1 µM [inhibitor, single point]"
22,Cc1cc(-c2nnc(SCC(=O)Nc3ccccc3C(F)(F)F)o2)c(C)n1-c1ccccc1,"inconclusive: 9.2 µM [activator, partial curve]"
23,CC(=O)c1ccc2c(c1)Cc1cc(C(C)=O)ccc1-2,"inconclusive: 9.2 µM [activator, partial curve]"
24,CCn1c(CCNC(=O)c2ccc(C)cc2)nnc1SCc1ccc(Cl)c(Cl)c1,"inconclusive: 29.1 µM [inhibitor, single point]"

# Taken from the listing (two entries):
row,Structure (SMILES),Potency
9,O=Cc1[nH]c2ccccc2c1N(C(=O)CCl)c1ccccc1,"inconclusive: 18.3 µM [inhibitor, single point]"
10,CCC1=NN(C(=O)c2cccnc2)C(O)(C(F)(F)F)C1 (configuration not stated),inactive

# Continued.

row,Structure (SMILES),Potency
1,CC(C)n1cc(/C=C2/NC(=O)N(c3cccc(Cl)c3)C2=O)c2ccccc21,"inconclusive: 1.64 µM [inhibitor, partial curve, poor fit]"
2,COc1ccc(C2Nc3ccccc3C(=O)N2Cc2ccco2)cc1COc1ccccc1F (configuration not stated),active: 18.4 µM
3,CC(=O)Nc1ccc(Nc2cc(C)nc(Nc3ccc(NC(C)=O)cc3)n2)cc1,"inconclusive: 25.9 µM [inhibitor, partial curve]"
4,COc1ccc(/C(C)=N/Nc2nc(C)c(C(C)=O)s2)cc1,"inconclusive: 29.1 µM [inhibitor, single point]"
5,C#CCOCCOCCOCCNc1nc(N2CCN(C(=O)Cn3cc(CCCCN)nn3)CC2)nc(N2CCN(C(=O)Cn3cc(CC(C)O)nn3)CC2)n1 (configuration not stated),inactive
6,COC(=O)c1ccc(N2CCN(CC(=O)c3ccc(-c4ccccc4)cc3)CC2)c([N+](=O)[O-])c1,"inconclusive: 9.2 µM [activator, partial curve, poor fit]"
7,NNC(=O)c1oc2nc(-c3ccccc3)cc(-c3ccccc3)c2c1N,active: 16.4 µM
8,CC(=O)c1ccc(NC(=O)Nc2ccc([N+](=O)[O-])cc2)cc1,"inconclusive: 9.2 µM [activator, partial curve]"
9,CCOC(=O)c1nn(-c2ccc(C)cc2)cc1C(=O)c1ccccc1,"inconclusive: 2.59 µM [activator, partial curve]"
10,COc1ccccc1NC(=O)c1ccc(C)s1,"inconclusive: 20.6 µM [activator, partial curve]"
11,O=S(=O)(NC1CCCCCCC1)c1cccs1,inactive
12,CSc1nncn1/N=C/c1ccc2c(c1)OCO2,"inconclusive: 20.6 µM [activator, single point]"
13,O=C(Nc1cccc(-c2nnc(-c3ccccc3)o2)c1)c1ccc(Br)o1,"inconclusive: 23.1 µM [inhibitor, single point]"
14,CCOc1c2ccc(C(=O)NCCc3cccs3)cc2nn1CC,"inconclusive: 10.3 µM [activator, partial curve]"
15,CC(=O)Cn1nnc(-c2ccc(C(F)(F)F)cc2)n1,"inconclusive: 16.4 µM [activator, single point]"
16,Cc1ccc(Oc2ccc(OCC(=O)NC(CC(C)C)C(=O)O)cc2)cc1 (configuration not stated),inactive
17,O=C(N/N=C/C=C/c1ccc2c(c1)OCO2)C(O)c1ccccc1 (configuration not stated),"inconclusive: 8.2 µM [activator, single point]"
18,COc1ccccc1N(C)S(=O)(=O)c1ccc(C(=O)NC(C)(C)C)cc1,"inconclusive: 8.2 µM [inhibitor, partial curve, poor fit]"
19,CN(Cc1ccccc1)C(=O)CN(c1ccccc1Cl)S(C)(=O)=O,"inconclusive: 20 µM [inhibitor, single point]"
20,CC(=O)C1=C(C)NC(C)=C(C(C)=O)C1c1ccc(-c2ccccc2Cl)o1,"inconclusive: 18.4 µM [activator, single point]"
21,Cc1cccc(NC(=S)NNC(=S)NC2CCCCC2)c1C,inactive
22,c1ccc2c(c1)NCCS2,"inconclusive: 20.6 µM [activator, single point]"
23,COC(=O)c1ccccc1NC(=O)CSCC(=O)Nc1ccc(F)cc1,"inconclusive: 0.116 µM [activator, partial curve, poor fit]"
24,Cc1ccccc1CN1CCc2c(OCC(=O)N3CCCc4ccccc43)cccc2C1=O,"inconclusive: 23.1 µM [inhibitor, single point]"
